1 sequence from PMC5963859 can be followed below.

The subject of this series is GST-MBNL1-HIS. The series is described as follows: fluorescence polarization. Conditions: 50 nM RNA, 400 nM protein (optimal shift); recombinant protein.

The exact form of at least one protein or probe is not confirmed.

Take “CUGCUGCUGCUGCUGCUGCUGCUGCUGCUGCUGCUGCUGCUGCUGCUGCUGCUGCUGCUGCUGCUGCUGCUGCUGCUG [TRITC-(CUG)26 RNA]”: the binding result is on record as “binds”.
